Measured values: PubChem BioAssay AID1347423 (Functional Genomics Laboratory (NCATS/FGL), 2020)
About 210 (0.4%) of roughly 52,000 sequences were called active.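 Rule for the calls: active = gene whose silencing raises cell survival under the drug, median off-target-corrected z-score across its silencing RNAs 2 or more; inactive = the rest.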 The list shows a part of the results.

Experiment: Resistance to Poly (ADP-Ribose) Polymerase inhibitor: Gene Identification via Genome-wide siRNA Screen
Conditions: mouse BRCA2 R2336H ES cells, olaparib, CellTiter-Glo viability; hits give high values
Method in brief: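 Genome-wide siRNA screen (3 siRNAs/gene, 20 nM) in mouse ES cells carrying hypomorphic BRCA2 R2336H; olaparib 500 nM added 48 h post-transfection, CellTiter-Glo viability 72 h later. Normalized to plate-median negative control; MAD z-scores, gene median, seed-adjusted.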

| Sequence | z-score |
| --- | --- |
| GGGAACCUACGAGGAUUAUTT against Myl6 | inactive: 2.04 |
| GCUCUUCUCGCAUUCCUAUTT against Gpc2 | inactive: -0.68 |
| CGUACUUUAGGCAACCUAATT against 4930403J22Rik | inactive: -0.193 |
| GGACAUGAUCGACGACUACTT against Zfyve28 | inactive: -1.11 |
| GGUGUGAGAUCGAAUCAGATT against Arhgef18 | inactive: -0.136 |
| GGCCAUGUUGCAUCAGUUGTT against Kif27 | inactive: 0.0542 |
| CCUUGACUCGUAAAUACUUTT against 2400003C14Rik | inactive: -1.3 |
| GGCGCGAAGUGUGAAUUUCTT against 3000002B06Rik | inactive: 0.671 |
| GGAUGACAAGACAUCACUUTT against 1300010K09Rik | inactive: 0.185 |
| GGCUGUUCGCUGCUACGAATT against Utx | inactive: -0.26 |
| CCCAAUGCAUCUCUGCUCATT against AI987662 | inactive: -0.682 |
| CCCUGGUACAUUUCACGUCTT against LOC387334 | inactive: 0.736 |
| GGAUGAUCUCUACAGUAUATT against Cckar | inactive: 0.669 |
| GGUCAUCAGCUUGUAACCATT against 2010311D03Rik | inactive: 0.0946 |
| GCUUACCUUGGACAAAUGUTT against Hiat1 | inactive: 1.14 |
| GGACAAAGCUAUUGGGAUUTT against Olfr402 | inactive: -1.84 |
| CGUAGACUGAUAUAGCAAUTT against Irf5 | inactive: 0.31 |
| CGAGUAUUUUGAAAUCCUGTT against 5430419D17Rik | inactive: -0.0321 |
| GCCUUUGAGGUUAUGAUCATT against Klk7 | inactive: 2.54 |
| CCUACAUUGAUCAUCUUUATT against Olfr901 | inactive: 1.05 |
| GCGUGAGUCCCAGAAGCUUTT against 2410018L13Rik | inactive: -0.857 |
| GGGACCACGUCACUCUUAATT against Rab6b | inactive: 0.0925 |
| GGGCAACGAGCUGUUCAAATT against AW538196 | inactive: 0.223 |

| Sequence | z-score |
| --- | --- |
| GGACAAAAACAAGAUCCUCTT against Hspa2 | inactive: 2.78 |
| GGUUAAGAUUCCAGAGCCATT against 9230112O05Rik | inactive: -0.723 |
| GCACAUGCACUUCUCACUUTT against Olfr223 | inactive: -0.3 |
| GCCUAUUCUAUCGAUAACCTT against Cdh23 | inactive: 0.881 |
| GGGAAAUGUUGAACAUAUCTT against Lap3 | inactive: -0.259 |
| CCCAUCUCCUUAAAGUCAATT against Ripk3 | inactive: 0.792 |
| GCUAAAUUUACUUGUAUGGTT against Mcp | inactive: -0.329 |
| ACAAAUCACACGUGUUAGUTT against LOC384806 | inactive: 0.756 |
| CCUGGACCCAUUAUUUGCCTT against Slc35a2 | inactive: 0.186 |
| GGAUGAAGACGGAUUCCUCTT against Map1lc3a | inactive: 1.41 |
| GGGUUUUUUUAACUGCUUUTT against Efemp1 | inactive: 0.198 |
| GGUUCAGCAAGAAGAAUCATT against Cyp3a13 | inactive: -0.675 |
| GGUCUUCUCCCAAAUAAAUTT against Lcmt1 | inactive: 0.155 |
| GGCUUUGGAAGUAUCUUUGTT against Pcsk7 | inactive: -1.37 |
| CCAUUCUUGGAUAGACAUATT against Pilrb | inactive: -0.119 |
| GUGAAGAGAAGGCUUGAGUTT against Ifna11 | inactive: 0.922 |
| CCUGCCAAUUUGUUUUUUGTT against 2900054P12Rik | inactive: -0.0695 |
| GAGAUCUUACCCAGCAGAUTT against Ifna4 | inactive: -1.22 |
| CGGUUACCACCUCACAUUCTT against 4933421H10Rik | inactive: 0.601 |
| GGGUUUGAGAAUUUGAAGCTT against 4930435C18Rik | inactive: 1.31 |
| GGAUACAGUUUCUGAAAUCTT against Wbscr14 | inactive: 0.129 |
| GGAUGCUCACCUUCAAAUUTT against Il2 | inactive: -1.16 |
| GGUUCUCCUGAUUUGUUUATT against Sdhc | inactive: -0.591 |

| Sequence | z-score |
| --- | --- |
| GGUUUGUUUCCUGACAUUATT against Sh3gl3 | inactive: 0.232 |
| GGACUUUGACCCGUACUAUTT against Scn8a | inactive: -0.352 |
| GGGUAUUUCCUGGUGGAUUTT against Mrps6 | inactive: -0.573 |
| GGGAACUUUCCUCAAGUCUTT against Phactr3 | inactive: 1.38 |
| CGACUGUCAGAUUACAACATT against Ubl4 | inactive: -1.52 |
| GGUGUCUGUGCCUAUCAUCTT against Slc34a3 | inactive: 0.464 |
| CCCUCAUUCUCUAGCGUGATT against H2-K1 | inactive: -0.105 |
| GGCUAAAUGGGAAACCUGGTT against Cdkn2b | inactive: -0.298 |
| GGCAACUUCAAGUCCAUAUTT against Pnma3 | inactive: 1.72 |
| GCCCAAACUGCUCUACUGCTT against Fgf1 | inactive: 1.43 |
| GCACAGGAAACAAUUGAUATT against Stxbp4 | inactive: 0.117 |
| CCACGAUCAAGGAGAAUGUTT against Apoa4 | inactive: 1.11 |
| CCCAUGCUUGGAAUAAUUATT against Man1a | inactive: -0.351 |
| CCAGUUUGUACAUAGUGUATT against Rab35 | inactive: 2.03 |
| GCUAGUGAAAAAGAUCGACTT against Kcnn2 | inactive: 0.557 |
| GGAGUUAGGCUGUAGAAGUTT against Dpysl2 | inactive: 0.156 |
| GGCUGAUUCUCCUUCUACCTT against Solh | inactive: 1.81 |
| CCAUGGAGAAUCAUGACAGTT against Slfn1 | inactive: 0.281 |
| GCUUUGGAUCAUUCAGACCTT against Cugbp2 | inactive: -1.04 |
| GGCUGUGAAGAAAUACCACTT against Lcp2 | inactive: 0.153 |
| GGAUAUUCUUUCCAGGCUATT against Fanca | inactive: -0.885 |
